From PubChem BioAssay AID248 (DTP/NCI, 2004) come the findings set out here.

The list is a part of this screen's results and no random one: it is rich in T/C values a quarter to a half above the control, in often repeated tests (any T/C) and in doses without a T/C. Other doses and runs of a compound stand elsewhere. T/C is the treated group as % of the vehicle group. Some doses have a count of surviving animals in place of a T/C: the source files T/C as zero there, which appears to mark a toxic dose or a test without result, not a measured value. Some survivor counts are full or nearly so, which does not show that the dose was tolerated: survival well below the control is almost never listed, so the zero probably covers shortened survival too. Survivors were counted at the toxicity check, usually on the fifth day, unless a day is given; later deaths do not show. Schedules are NCI's codes, taken here to give the interval after Q, in days (D) or hours (H), and the number of doses after X. Some entries were tested several times; their values stand side by side, smallest first. Some structures stand for samples that the source files as different forms (salt, stereo form or complex); doses refer to the form tested. Some schedules carry Z or #; the key to these is not given. Where survival is the endpoint, the PubChem record calls one and a half times the control and up active, and a quarter to a half above the control has no call in these data; cut-offs in other NCI protocols can differ. Some T/C values are followed by the survivors on the day toxicity was checked, most often the fifth; where none is given, no animal had died by that day.

This experiment has as its system L1210 leukemia ip in BDF1 mice, survival T/C. Put plainly: NCI In Vivo Anticancer Drug Screen. Data for tumor model L1210 Leukemia (intraperitoneal) in B6D2F1 (BDF1) mice. To be noted: T/C endpoint: mean survival time, higher T/C = longer survival.
Setting [1] is: dose: 50.0 mg/kg/injection, schedule: Q01DX001 (ip), vehicle: saline.
Where [2] appears, read: dose: 50.0 mg/kg/injection, schedule: Q04DX003 (ip), vehicle: Klucel (hydroxypropylcellulose) (HPC).
The mark [3] stands for this setting: dose: 200.0 mg/kg/injection, schedule: Q01DX009 (ip), vehicle: saline.
Where [4] appears, read: dose: 400.0 mg/kg/injection, schedule: Q01DX009 (ip), vehicle: saline.
Setting [5] is: dose: 100.0 mg/kg/injection, schedule: Q04DX003 (ip), vehicle: acetone.
The mark [6] stands for this setting: dose: 200.0 mg/kg/injection, schedule: Q04DX003 (ip), vehicle: acetone.
[7] abbreviates: dose: 400.0 mg/kg/injection, schedule: Q04DX003 (ip), vehicle: acetone.
Setting [8] is: dose: 100.0 mg/kg/injection, schedule: Q01DX009 (ip), vehicle: saline with Tween-80.
The mark [9] stands for this setting: dose: 200.0 mg/kg/injection, schedule: Q01DX009 (ip), vehicle: saline with Tween-80.
The mark [10] stands for this setting: dose: 400.0 mg/kg/injection, schedule: Q01DX009 (ip), vehicle: saline with Tween-80.

Regarding `O=C1CC2OCC=C3CN4CCC56c7ccccc7N1C5C2C3CC46` (configuration not stated) (tested in a mixture with another compound), the survivor count is, setting by setting: (dose: 2.3 mg/kg/injection, schedule: Q01DX009 (ip), vehicle: saline) 0 of 6; (dose: 3.0 mg/kg/injection, schedule: Q01DX009 (ip), vehicle: Klucel (hydroxypropylcellulose) (HPC)) 0 of 6 and 2 of 6; (dose: 3.0 mg/kg/injection, schedule: Q04DX003 (ip), vehicle: Klucel (hydroxypropylcellulose) (HPC)) 3 of 6; (dose: 3.12 mg/kg/injection, schedule: Q04DX003 (ip), vehicle: alcohol) 4 of 6; (dose: 3.12 mg/kg/injection, schedule: Q04DX003 (ip), vehicle: saline) 3 of 6; (dose: 3.13 mg/kg/injection, schedule: Q04DX003 (ip), vehicle: saline + alcohol) 0 of 6. The survivor count by setting is: (dose: 3.5 mg/kg/injection, schedule: Q01DX009 (ip), vehicle: saline) 0 of 6; (dose: 5.2 mg/kg/injection, schedule: Q01DX009 (ip), vehicle: saline) 0 of 6; (dose: 6.0 mg/kg/injection, schedule: Q01DX009 (ip), vehicle: Klucel (hydroxypropylcellulose) (HPC)) 0 of 6; (dose: 6.0 mg/kg/injection, schedule: Q04DX003 (ip), vehicle: Klucel (hydroxypropylcellulose) (HPC)) 0 of 6; (dose: 6.25 mg/kg/injection, schedule: Q04DX003 (ip), vehicle: alcohol) 0 of 6; (dose: 12.0 mg/kg/injection, schedule: Q01DX009 (ip), vehicle: Klucel (hydroxypropylcellulose) (HPC)) 0 of 6. The survivor count was 0 of 6 (dose: 12.0 mg/kg/injection, schedule: Q04DX003 (ip), vehicle: Klucel (hydroxypropylcellulose) (HPC)); 0 of 6 (dose: 12.5 mg/kg/injection, schedule: Q01DX001 (ip), vehicle: saline); 0 of 6 (dose: 12.5 mg/kg/injection, schedule: Q01DX009 (ip), vehicle: Klucel (hydroxypropylcellulose) (HPC)); 0 of 6 (dose: 12.5 mg/kg/injection, schedule: Q04DX003 (ip), vehicle: saline); 0 of 6 (dose: 25.0 mg/kg/injection, schedule: Q01DX001 (ip), vehicle: saline); 0 of 6 (dose: 25.0 mg/kg/injection, schedule: Q01DX009 (ip), vehicle: Klucel (hydroxypropylcellulose) (HPC)). In addition, the survivor count reads like this: (dose: 25.0 mg/kg/injection, schedule: Q04DX003 (ip), vehicle: Klucel (hydroxypropylcellulose) (HPC)) 0 of 6; (dose: 25.0 mg/kg/injection, schedule: Q04DX003 (ip), vehicle: saline) 0 of 6; under setting [1], 0 of 6; (dose: 50.0 mg/kg/injection, schedule: Q01DX009 (ip), vehicle: Klucel (hydroxypropylcellulose) (HPC)) 0 of 6; under setting [2], 0 of 6; (dose: 50.0 mg/kg/injection, schedule: Q04DX003 (ip), vehicle: saline) 0 of 6. Also, the survivor count reads like this: (dose: 100.0 mg/kg/injection, schedule: Q01DX001 (ip), vehicle: saline) 0 of 6; (dose: 100.0 mg/kg/injection, schedule: Q04DX003 (ip), vehicle: Klucel (hydroxypropylcellulose) (HPC)) 0 of 6; (dose: 100.0 mg/kg/injection, schedule: Q04DX003 (ip), vehicle: alcohol) 0 of 6; (dose: 200.0 mg/kg/injection, schedule: Q01DX001 (ip), vehicle: saline) 0 of 6; (dose: 200.0 mg/kg/injection, schedule: Q04DX003 (ip), vehicle: Klucel (hydroxypropylcellulose) (HPC)) 0 of 6; (dose: 200.0 mg/kg/injection, schedule: Q04DX003 (ip), vehicle: alcohol) 0 of 6. In addition, the survivor count by setting is: (dose: 400.0 mg/kg/injection, schedule: Q01DX001 (ip), vehicle: saline) 0 of 6; (dose: 400.0 mg/kg/injection, schedule: Q04DX003 (ip), vehicle: Klucel (hydroxypropylcellulose) (HPC)) 0 of 6; (dose: 400.0 mg/kg/injection, schedule: Q04DX003 (ip), vehicle: alcohol) 0 of 6.

Consider `O=C(CCc1ccc(C(=O)Nc2ccc(C3=NCCCN3)cc2)cc1)Nc1ccc(C2=NCCCN2)cc1`, for which the T/C (dose: 1.5 mg/kg/injection, schedule: Q01DX Z (ip), vehicle: water) is 138 % of control and the T/C (dose: 2.0 mg/kg/injection, schedule: Q01DX Z (ip), vehicle: water) is 131 % of control. For the same compound, the survivor count (dose: 16.0 mg/kg/injection, schedule: Q01DX Z (ip), vehicle: water) is 3 of 6.

With `CC(=O)Nc1cc(NC(C)=O)cc([N+](=O)[O-])c1`, the survivor count reads like this: under setting [3], 6 of 6; under setting [4], 2 of 6.

Regarding `O=C1C=CC(=O)N1CN1CCOCC1`, the survivor count is, setting by setting: under setting [5], 0 of 6; under setting [6], 0 of 6; under setting [7], 0 of 6.

Consider `CCC(C)(C)C(=O)Nc1cccc(OC(=O)NC)c1`, for which the survivor count is, setting by setting: under setting [8], 6 of 6; under setting [9], 6 of 6.

Turning to `O=NN(CCCl)C(=O)NC1[C@H](O)CCC[C@@H]1O` (some centres not stated), the T/C is, setting by setting: (dose: 33.0 mg/kg/injection, schedule: Q01DX001 (ip), vehicle: saline, evaluated on day 30) 145 % of control; (dose: 33.0 mg/kg/injection, schedule: Q01DX001 (ip), vehicle: saline, evaluated on day 45) 134 % of control [8 of 10 alive]. Also, the survivor count is given as 10 of 10 under setting [1]; 9 of 10 (dose: 75.0 mg/kg/injection, schedule: Q01DX001 (ip), vehicle: saline); 8 of 10 (dose: 112.0 mg/kg/injection, schedule: Q01DX001 (ip), vehicle: saline); 1 of 10 (dose: 168.0 mg/kg/injection, schedule: Q01DX001 (ip), vehicle: saline).

Regarding `Cc1cc2cccc[n+]2cc1C`, the survivor count reads like this: (dose: 50.0 mg/kg/injection, schedule: Q01DX009 (ip), vehicle: saline) 3 of 6; (dose: 100.0 mg/kg/injection, schedule: Q01DX009 (ip), vehicle: saline) 0 of 6; under setting [3], 0 of 6; under setting [4], 0 of 6.

On to `c1ccc2c3csc4ccccc4c-3nc2c1`, for which the survivor count is 6 of 6 under setting [2]; 6 of 6 (dose: 55.0 mg/kg/injection, schedule: Q01DX009 (ip), vehicle: Klucel (hydroxypropylcellulose) (HPC)); 0 of 6 (dose: 80.0 mg/kg/injection, schedule: Q01DX009 (ip), vehicle: Klucel (hydroxypropylcellulose) (HPC)); 3 of 6 under setting [5]; 0 of 6 under setting [6]; 0 of 6 under setting [7].

Turning to `CC(O)C(C)(O)C(=O)O` (configuration not stated), under setting [4], the survivor count was 2 of 6.

In the case of `Cc1cc(OC(=O)Nc2ccccc2C(F)(F)F)cc(C)c1Cl`, the survivor count under setting [8] is 6 of 6; the survivor count under setting [9] was 6 of 6; the survivor count under setting [10] was 5 of 6 and 6 of 6.

Turning to `CNC1(c2ccccc2)CC1`, the survivor count (dose: 300.0 mg/kg/injection, schedule: Q04DX002 (ip), vehicle: saline) is on record as 1 of 3.

Turning to `CCCC(C)c1cc([N+](=O)[O-])cc([N+](=O)[O-])c1O` (configuration not stated), the survivor count reads like this: under setting [8], 0 of 6; under setting [9], 0 of 6; under setting [10], 0 of 6.
